From publication PMC3607560

Biological target: T1, ^NYGIRK3 (^NYFP fused to the N-terminal domain of GIRK3) (UniProt P48543)
T1 sequence: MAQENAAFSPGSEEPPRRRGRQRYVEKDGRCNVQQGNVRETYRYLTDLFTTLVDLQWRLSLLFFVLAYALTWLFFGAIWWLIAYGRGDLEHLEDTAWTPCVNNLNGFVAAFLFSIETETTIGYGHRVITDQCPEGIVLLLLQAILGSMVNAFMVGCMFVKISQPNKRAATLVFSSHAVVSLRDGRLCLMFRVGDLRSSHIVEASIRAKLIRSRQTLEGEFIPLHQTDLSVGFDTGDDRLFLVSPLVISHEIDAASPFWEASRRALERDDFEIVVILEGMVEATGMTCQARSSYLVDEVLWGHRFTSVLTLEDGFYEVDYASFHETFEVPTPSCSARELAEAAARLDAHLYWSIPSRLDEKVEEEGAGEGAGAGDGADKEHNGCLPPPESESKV
Test: split reporter; BiFC with split YFP in transiently transfected HEK293 cells, 37°C for 24 h and 30°C for another 24 h, fixed, confocal microscopy

binding: binds
Substance: ^CYGIRK2c (^CYFP fused to the N-terminal domain of GIRK2c) (from UniProt P48542-1)

These are yes or no findings as the source states them, for the method shown. Binding seen in cells or lysates may run through a third protein. Binding can be weak; no strength is given. Sequences can lack the tags named with a protein.
